Data on 48 compounds can be found in the supplement of paper PMC4807443.

Each structure is given as a SMILES string. Where a name gives a salt, the structure may show the parent alone. This is one part of the list. The numbers are fractions of the control, whatever unit the source prints. Most entries show no effect beyond the scatter of the controls.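 A lentiviral reporter stably expressed in MIN6 mouse insulinoma beta cells uses Pdx1 and Ins1 promoters to drive separate nucleus-targeted fluorescent proteins; automated imaging with Hoechst nuclear stain counted cells. Possible hits were drugs shifting Ins1 promoter signal more than two median absolute deviations from DMSO controls, with Pdx1 activity roughly normal.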

The test system of this assay is MIN6. The experiment in a line: % Pdx1+ Ins1+ (double-positive, mature) cells relative to DMSO control (fold of DMSO control); higher = more mature Ins1 promoter-active cells. Particulars: 8.5 µM; 48 h; glucose 5 mM.
Turning to `CN(C)CCCOc1nn(Cc2ccccc2)c2ccccc12` [Benzydamine hydrochloride], the “% Pdx1+ Ins1+” value turned out to be 1.09. For `Nc1ccc(S(=O)(=O)Nc2ccc(Cl)nn2)cc1` [Sulfachloropyridazine] the value was 0.831; for `COc1cc2nc(N3CCN(C(=O)C4CCCO4)CC3)nc(N)c2cc1OC` (stereo not drawn) [Terazosin hydrochloride], 0.804.

With `C[C@@H]1C[C@H]2[C@@H]3C[C@H](F)C4=CC(=O)C=C[C@]4(C)[C@@]3(F)[C@@H](O)C[C@]2(C)[C@@]1(O)C(=O)CO` [Flumethasone], the “% Pdx1+ Ins1+” value was determined as 1.01. For `O=C(O)Cc1ccc(-c2ccccc2)cc1` [Felbinac] the value was 0.959; for `Clc1ccc(CCC(Cn2ccnc2)Sc2c(Cl)cccc2Cl)cc1` (stereo not drawn) [Butoconazole nitrate], 1.09; for `N#Cc1ccc(C(c2ccc(C#N)cc2)n2cncn2)cc1` [Letrozole], 0.934.

With `C[N+]1(C)CCC(OC(=O)C(O)(c2ccccc2)C2CCCC2)C1` (stereo not drawn) [Glycopyrrolate], the “% Pdx1+ Ins1+” value came out at 0.965. In the case of `N=C(NCCCCCCNC(=N)NC(=N)Nc1ccc(Cl)cc1)NC(=N)Nc1ccc(Cl)cc1` [Chlorhexidine], the “% Pdx1+ Ins1+” value worked out at 0.437.

`NCc1ccccc1CC(=O)N[C@@H]1C(=O)N2C(C(=O)O)=C(CSc3nnnn3CC(=O)O)CS[C@H]12` [Ceforanide]: the “% Pdx1+ Ins1+” value was determined as 1.04. As for `COc1c2occc2cc2ccc(=O)oc12` [Methoxy-8-psoralen], the “% Pdx1+ Ins1+” value stood at 0.943. Next, `CN1CCN(C2=Nc3ccccc3Oc3ccc(Cl)cc32)CC1` [Loxapine succinate]: 1.09; `CCN(CC)CCOC(=O)C1(C2CCCCC2)CCCCC1` [Dicyclomine hydrochloride]: 1.08. For `CC(N/C(=N\C#N)Nc1ccncc1)C(C)(C)C` (stereo not drawn) [Pinacidil] the value was 1.13; for `Cc1[nH]ccc2c1[nH]c1cc(=O)ccc12` [Harmol hydrochloride monohydrate], 0.872. Next, `CN(C)CCCN1c2ccccc2Sc2ccc(C(F)(F)F)cc21` [Triflupromazine hydrochloride]: 1.08; `COc1ccc([C@@H]2CC(=O)c3c(O)cc(O)cc3O2)cc1O` [Hesperetin]: 1.09; `COc1cc(C(=O)OCCCN2CCCN(CCCOC(=O)c3cc(OC)c(OC)c(OC)c3)CC2)cc(OC)c1OC` [Dilazep dihydrochloride]: 1.13. On to `CC[N+](C)(C)c1cccc(O)c1` [Edrophonium chloride], for which the “% Pdx1+ Ins1+” value was 1.23. For `CCCOc1cc(N)ccc1C(=O)OCCN(CC)CC` [Propoxycaine hydrochloride] the value was 0.958; for `OCCN1CCN(CC/C=C2/c3ccccc3Sc3ccc(C(F)(F)F)cc32)CC1` [Flupentixol dihydrochloride cis-(Z)], 1.04. Next, `CC(=O)OCC(=O)[C@@]1(O)CC[C@H]2[C@@H]3CCC4=CC(=O)CC[C@]4(C)[C@@]3(F)[C@@H](O)C[C@@]21C` [Fludrocortisone acetate]: 0.934; `COc1ccc2c3c([nH]c2c1)[C@H]1C[C@H]2[C@H](C[C@@H](O)[C@H](OC)[C@H]2C(=O)O)CN1CC3` [Reserpinic acid hydrochloride]: 0.883. Next, `CCCCN(CCCC)CCCOC(=O)c1ccc(N)cc1` [Butacaine]: 1.14; `Cc1ccc(C(=O)c2ccc(CC(=O)O)n2C)cc1` [Tolmetin sodium salt dihydrate]: 1.06. Regarding `COC(=O)Nc1nc2cc(C(=O)c3cccs3)ccc2[nH]1` [Nocodazole], the “% Pdx1+ Ins1+” value turned out to be 0.886.

On to `CC[N+](C)(CC)CCOC(=O)C1c2ccccc2Oc2ccccc21` [Methantheline bromide], for which the “% Pdx1+ Ins1+” value came to 0.781. As to `Cc1ncc(C[n+]2csc(CCO)c2C)c(N)n1` [Thiamine hydrochloride], the “% Pdx1+ Ins1+” value was found to be 0.948.

On to `CCN[C@H]1CN(CCCOC)S(=O)(=O)c2sc(S(N)(=O)=O)cc21` [Brinzolamide], for which the “% Pdx1+ Ins1+” value is 1.04.

For the compound `NS(=O)(=O)c1cc(C2(O)NC(=O)c3ccccc32)ccc1Cl` (stereo not drawn) [Chlorthalidone], the “% Pdx1+ Ins1+” value stood at 0.9. For `C=CC(N)CCC(=O)O` (stereo not drawn) [Vigabatrin] the value was 0.887; for `CC(Cc1cccc(C(F)(F)F)c1)NCCOC(=O)c1ccccc1` (stereo not drawn) [Benfluorex hydrochloride], 0.937. Next, `CC(=O)S[C@@H]1CC2=CC(=O)CC[C@]2(C)[C@H]2CC[C@@]3(C)[C@@H](CC[C@@]34CCC(=O)O4)[C@H]12` [Spironolactone]: 1.18. On to `NNCCc1ccccc1` [Phenelzine sulfate], for which the “% Pdx1+ Ins1+” value is 1.06. `C=C1CC[C@H](O)C/C1=C/C=C1\CCC[C@]2(C)[C@@H]([C@H](C)CCCC(C)C)CC[C@@H]12` [Cholecalciferol]: the “% Pdx1+ Ins1+” value worked out at 0.848. For `CC(C)(C)NC[C@@H](O)COc1cccc2c1CCCC2=O` [(+) -Levobunolol hydrochloride] the value was 0.889; for `N=C(N)NC(=N)NCCc1ccccc1` [Phenformin hydrochloride], 1.14; for `CN1CCC(=C2c3ccccc3C=Cc3ccccc32)CC1` [Cyproheptadine hydrochloride], 0.732. For `CS(=O)(=O)c1ccc([C@@H](O)[C@@H](CF)NC(=O)C(Cl)Cl)cc1` [Florfenicol] the value was 1.07. For `CCN(CC)CCCC(C)Nc1ccnc2cc(Cl)ccc12` (stereo not drawn) [Chloroquine diphosphate] the value was 0.867. For the compound `Nc1ccc(S(=O)(=O)NC(=O)c2ccccc2)cc1` [Sulfabenzamide], the “% Pdx1+ Ins1+” value was 0.812. Next, `C=C(CC)C(=O)c1ccc(OCC(=O)O)c(Cl)c1Cl` [Ethacrynic acid]: 0.942. For `O=C1NCCN1c1ncc([N+](=O)[O-])s1` [Niridazole] the value was 0.808; for `C=C(C)[C@@H]1CC[C@]2(C(=O)O)CC[C@]3(C)[C@H](CC[C@@H]4[C@@]5(C)CC[C@H](O)C(C)(C)[C@@H]5CC[C@]43C)[C@@H]12` [Betulinic acid], 0.921; for `C[C@@H](O)[C@H]1C(=O)N2C(C(=O)O)=C(SCCNC=N)C[C@H]12` [Imipenem], 0.945.

For `c1ccc2c(c1)CCCC2C1=NCCN1` (stereo not drawn) [Tetrahydrozoline hydrochloride], the “% Pdx1+ Ins1+” value is 0.642. Next, `CC(C)(C)C(=O)OCOC(=O)[C@@H]1N2C(=O)[C@@H](/N=C/N3CCCCCC3)[C@H]2SC1(C)C` [Pivmecillinam hydrochloride]: 0.934; `CNc1ncnc2c1ncn2[C@@H]1O[C@H](CO)[C@@H](O)[C@H]1O` [N6-methyladenosine]: 0.833.
